{"source": "patent US20110253633A1", "about": "“CATANIONIC VESICLES, PROCESS FOR PREPARING SAME AND APPLICATIONS THEREOF” (COMMISSARIAT A L'ENERGIE ATOMIQUE ET AUX ENERGIES ALT., priority 2008, published 2011)", "assay": "Permeability to anions and degree of encapsulation (dialysis, fluorescence at 522 nm)", "assay_type": "physicochemical", "details": "exponential fit over 7-57 days of dialysis; R 2.5 μm", "procedure": "Stir at 50° C. for 72 hours.\nThe solution is made up to 3 mL by adding a solution of CTACl at 1.5 mM in a borate buffer solution at pH=9. The fluorescence emission at 522 nm with excitation at 502 nm is measured with a Varian Cary Eclipse fluorescence spectrometer for all the solutions prepared from each of the samples taken. The concentration of Oregon Green in each sample is proportional to the fluorescence emission to within an arbitrary factor that is not important for the measurement.\n(FIG. 11). […] The ratio of the fluorescence measured from the initial solution to the fluorescence extrapolated to t=0 makes it possible to measure the degree of encapsulation. 60% of the initial Oregon Green is therefore encapsulated.", "note": "At least one read-out could not be matched to a standard name with certainty."}
{"smiles": "O=C(O)c1ccccc1-c1c2cc(F)c(=O)cc-2oc2cc(O)c(F)cc12", "note": "[Oregon Green]", "values": [{"measurement": "permeability of the vesicles to Oregon Green", "result": "8.9 10^−11 cm/s"}]}
